Source: PubChem BioAssay AID1347076 (National Center for Advancing Translational Sciences (NCATS), 2019)
The campaign covered roughly 400,000 compounds. About 13,000 (3.2%) were called active. The shares of active, inactive and inconclusive entries below differ from those in the screen. The call rests on the fitted dose curve; in most records, active means well fitted cell-killing curve with a large enough effect; inconclusive means small, poorly fitted or top-dose-only effect, or effect the other way; inactive means flat fitted curve, though single readings scatter. Potencies beside an inconclusive call are fits to weak or partial responses and may not hold up.

Test: qHTS assay for MDR1-selective chemotherapeutics: Primary screen using the drug-selected MDR subline cells KB-V1; further: nearly all actives have a fitted effect of over 60% in size
Conditions: KB-V1 MDR cells viability, CellTiter-Glo, 72 h; activity change, negative = cytotoxicity: at 46.1 µM (top of the series)
In short: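 Cells of the MDR subline KB-V1 are plated, dosed with compound at multiple concentrations, and incubated 72 h at 37 degrees C; CellTiter-Glo is then added and luminescence read after 10 min.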
On the % scale 0 is the no-effect control and ±100 the full control effect; potency means the concentration at half of the fitted maximal effect.

| SMILES | Potency | activity change, negative = cytotoxicity |
| --- | --- | --- |
| CC1CCCC(C)N1C(=O)c1cc2ncc(CCCl)cn2n1 (stereo unspecified) | active: 20.6 µM | – |
| COc1ccccc1CC(=O)N1CCN(S(=O)(=O)c2cccs2)CC1 | inconclusive: 25.9 µM [cytotoxic, single point] | – |
| Cc1cccc(C(CC(=O)NCC2(c3ccccc3)CCCC2)c2ccccc2)c1O (stereo unspecified) | – | inconclusive: -30.8% [cytotoxic] |
| CCN(C(=O)CSc1nnc(-c2ccc(F)cc2)n1C)C1CCS(=O)(=O)C1 (stereo unspecified) | inactive | – |
| Cc1nn2c(-c3cccc(NC(=O)CSc4nc5ccccc5o4)c3)nnc2c2ccccc12 | inconclusive: 23.1 µM [cytotoxic, single point] | – |
| CC(=O)N1CCN(c2ccc(NC(=O)c3ccc(C)cc3)cc2)CC1 | active: 18.4 µM | – |
| O=C(Nc1ccc2c(c1)OCCO2)C1c2ccccc2OCC(=O)N1Cc1ccccc1 (stereo unspecified) | inactive | – |
| O=C(CSc1nc2ccccc2o1)N1c2ccccc2Sc2ccccc21 | inconclusive: 11.6 µM [cytotoxic, partial curve] | – |
| CCN(CC)c1nc2ccccc2c(N)c1-c1ccccc1 | inconclusive: 20.6 µM [cytotoxic, partial curve, poor fit] | – |
| Cc1cc(=O)oc2cc(OCC(=O)NC3CCCCC3)c(Cl)cc12 | inactive | – |
| O=C1c2ccccc2C(=O)N1CCc1csc(-c2cccc(Cl)c2)n1 | inconclusive: 8.2 µM [cytotoxic, partial curve] | – |
| Cc1ccc(S(=O)(=O)N2CCN(CC(=O)NC(C)c3ccccc3)CC2)cc1 (stereo unspecified) | inconclusive: 18.4 µM [cytotoxic, single point] | – |
| Cc1cc(C)c2c(c1)N[C@H](c1cccs1)[C@@H]1CCO[C@H]21 | inactive | – |
| Cc1ccc(CNC(=O)c2cc3c(=O)n4ccccc4nc3n(CC3CCCO3)c2=N)cc1 (stereo unspecified) | inconclusive: 29.1 µM [cytotoxic, single point] | – |
| CCCC1=C(C(=O)OCC)C(c2ccc(NC(C)=O)cc2)NC(=O)N1 (stereo unspecified) | inconclusive: 0.731 µM [rising, full curve] | – |
| Fc1ccc(CSc2ccc(-c3ccco3)nn2)cc1 | inconclusive: 16.4 µM [cytotoxic, single point] | – |
| CCOc1ccc2nc(N3CCCN(C(=O)Nc4ccccc4C)CC3)c(C#N)cc2c1 | active: 18.4 µM | – |
| Cc1cc(NC(c2cccnc2)c2ccc3cccnc3c2O)no1 (stereo unspecified) | inconclusive: 2.06 µM [cytotoxic, full curve] | – |
| Cc1ccc2nc(SCC(=O)N3CCCC3)nc(=O)n2c1 | inconclusive: 18.4 µM [rising, single point] | – |
| CCCCn1c(SCc2cccnc2)nc2c1c(=O)n(C)c(=O)n2C | inactive | – |
| COc1ccc(N2C(=O)/C(=C/c3cccs3)NC2=S)cc1 | inconclusive: 8.2 µM [cytotoxic, partial curve] | – |
| O=C(N=C1SC2CS(=O)(=O)CC2N1Cc1ccccc1Cl)C1CC1 (stereo unspecified) | inconclusive: 23.1 µM [cytotoxic, single point] | – |
| NC(=O)c1ccc(NC(=O)CNC(=O)c2sc3ccccc3c2Cl)cc1 | inconclusive: 29.1 µM [rising, single point] | – |
| O=C(Nc1c2c(nn1-c1cccc(Cl)c1)CS(=O)(=O)C2)c1ccco1 | inactive | – |

Two neighbouring compounds out of the list so far, quoted:

| SMILES | Potency | activity change, negative = cytotoxicity |
| --- | --- | --- |
| Fc1ccc(CSc2ccc(-c3ccco3)nn2)cc1 | inconclusive: 16.4 µM [cytotoxic, single point] | – |
| CCOc1ccc2nc(N3CCCN(C(=O)Nc4ccccc4C)CC3)c(C#N)cc2c1 | active: 18.4 µM | – |

The list continues:

| SMILES | Potency | activity change, negative = cytotoxicity |
| --- | --- | --- |
| O=C(O)CCc1ccc(S(=O)(=O)Nc2ccccc2N2CCCCC2)cc1 | inconclusive: 29.1 µM [rising, single point] | – |
| CCNS(=O)(=O)c1ccc(CCC(=O)NC2CCCC2)cc1 | inactive | – |
| CC(C)CN(CC(C)C)C(=O)Cc1coc2ccc3ccccc3c12 | active: 23.1 µM | – |
| N=c1n(CCCOc2ccc(F)cc2)c2ccccc2n1CC(N)=O | inconclusive: 20.6 µM [rising, partial curve, poor fit] | – |
| Nc1nc2c(Cl)cc(Cl)cc2s1 | inconclusive: 29.1 µM [cytotoxic, single point] | – |
| Cc1ccc(O)c(C(=O)CC(=O)c2ccccc2Cl)c1 | active: 7.31 µM | – |
| Cc1ccccc1N1CCN(Cc2ccc(Br)o2)CC1 | inconclusive: 18.4 µM [cytotoxic, single point] | – |
| COCCNc1nc2cc(-c3cccc(Cl)c3)sc2c(=O)n1C | inactive | – |
| Cc1cc(N2CCOCC2)ccc1/C=C1\NC(=O)N(Cc2ccccc2F)C1=O | inconclusive: 5.8 µM [cytotoxic, partial curve, poor fit] | – |
| O=C(CSc1ccc2nnc(-c3cccnc3)n2n1)Nc1ccc(F)cc1F | inconclusive: 29.1 µM [cytotoxic, single point] | – |
| Cc1sc2ncn(CC(=O)NCC3COc4ccccc4O3)c(=O)c2c1S(=O)(=O)N1CCCCC1 (stereo unspecified) | inconclusive: 23.1 µM [cytotoxic, single point] | – |
| COc1ccccc1OCCC(=O)OCC(=O)Nc1ccc2c(c1)OCO2 | inconclusive: 29.1 µM [cytotoxic, single point] | – |
| COc1ccc(-c2nnc(SC(=O)N3c4ccccc4Sc4ccccc43)o2)cc1 | inconclusive: 23.1 µM [cytotoxic, single point] | – |
| Cc1ccc(C(=O)/C=C/Nc2ccccn2)cc1 | – | inconclusive: -38.6% |
| COc1ccc(CCNC(=O)C(NS(=O)(=O)c2cccc3nsnc23)C(C)C)cc1OC (stereo unspecified) | inactive | – |
| COc1ccccc1CN(C)C(=O)c1ccc(S(=O)(=O)Nc2c(C)n(C)n(-c3ccccc3)c2=O)cc1 | – | inconclusive: 44.4% |
| CC(=O)C1=C(O)C(=CC=Cc2ccccc2)OC1=O | inactive | – |
| CCOc1ccc(NS(=O)(=O)c2ccc(C(=O)N(C)Cc3cccc(OC)c3OC)cc2)cc1 | inconclusive: 7.31 µM [cytotoxic, partial curve] | – |
| O=C(C[C@H]1C/C=C\C[C@H](Cc2ccc(F)cc2)C(=O)O[C@@H](c2ccccc2)CNC1=O)NCCO | inactive | – |
| CCOC(=O)c1nc(Nc2cccc(C)c2)c2ccccc2n1 | inconclusive: 14.6 µM [cytotoxic, partial curve, poor fit] | – |
| Cc1ccc(-n2c(SCC(=O)NCCN3C(=O)CSC3=O)nnc2-c2cccc(C)c2)cc1 | inconclusive: 13 µM [cytotoxic, partial curve] | – |
| CCCn1c(SCC(=O)N2CCc3ccccc32)n[nH]c1=O | inactive | – |
| C=CCN(C(=O)C1=NN(C2CCS(=O)(=O)C2)C(=O)CC1)c1nc(-c2ccc([N+](=O)[O-])cc2)cs1 (stereo unspecified) | inactive | – |
| Cc1cccc(Cl)c1OCCCCn1ccnc1 | active: 20.6 µM | – |

Some of these compounds in order of count of non-hydrogen atoms, rising.

| SMILES | Potency | activity change, negative = cytotoxicity |
| --- | --- | --- |
| Cc1cccc(Cl)c1OCCCCn1ccnc1 | active: 20.6 µM | – |
| Cc1ccc(O)c(C(=O)CC(=O)c2ccccc2Cl)c1 | active: 7.31 µM | – |
| O=C(C[C@H]1C/C=C\C[C@H](Cc2ccc(F)cc2)C(=O)O[C@@H](c2ccccc2)CNC1=O)NCCO | inactive | – |

(next part)

| SMILES | Potency | activity change, negative = cytotoxicity |
| --- | --- | --- |
| CCCn1c(COc2ccccc2)nc2ccccc21 | inconclusive: 10.3 µM [cytotoxic, partial curve] | – |
| CCn1c(CSCc2ccc(F)cc2)nnc1SCC(=O)N1CCN(c2ccccc2)CC1 | inconclusive: 23.1 µM [cytotoxic, single point] | – |
| O=C(c1ccccc1)N1CCC(CC2CC(c3ccc(Cl)cc3)=NO2)(C(=O)NCC2CCCCC2)CC1 (stereo unspecified) | inconclusive: 16.4 µM [rising, single point] | – |
| COC(=O)[C@]12CCCCC=C1N(CCc1ccc(OC)c(OC)c1)C(=O)[C@H](CC(=O)NCc1cccc(C(F)(F)F)c1)C2 | active: 14.6 µM | – |
| Cc1cccc(N(Cc2ccccc2)C(=O)CSC(C)C(=O)Nc2cc(C)on2)c1 (stereo unspecified) | active: 14.6 µM | – |
| COC(=O)c1c(NC(=O)c2ccc(S(=O)(=O)N3CCCCC3C)cc2)sc2c1CCN(C(C)C)C2 (stereo unspecified) | inactive | – |
| Cc1ccc(S(=O)(=O)N2C[C@H]3N(C(=O)OC(C)C)N(C(=O)OC(C)C)C[C@H](OC(=O)NCC4CCCCC4)[C@@]3(O)C2)cc1 | inconclusive: 29.1 µM [cytotoxic, single point] | – |
| CCOC(=O)CNC(=O)CNC(=O)c1ccc(OCC(C)C)cc1 | inconclusive: 29.1 µM [cytotoxic, single point] | – |
| Cc1nc2ccc(NC(=O)c3ccccc3)cc2s1 | inactive | – |
| O=C(CCc1nc2ccccc2c(=O)[nH]1)NNC(=O)c1ccc(F)cc1 | inactive | – |
| CC(OC(=O)c1cc(S(=O)(=O)N2CCOCC2)ccc1Br)C(=O)N1CCOCC1 (stereo unspecified) | inconclusive: 18.4 µM [cytotoxic, single point] | – |
| COc1ccc(NC(=O)CCNC(=O)c2ccc([N+](=O)[O-])cc2)cc1S(=O)(=O)N1CCOCC1 | inactive | – |
| O=C(NC(=S)Nc1ccccc1N1CCCC1)c1ccc(-c2cccc([N+](=O)[O-])c2)o1 | active: 16.4 µM | – |
| COc1ccc(-c2noc(CSc3nnc(-c4ccncc4)n3-c3ccccc3)n2)cc1 | inactive | – |
| Cc1ccccc1-c1noc(CSc2nnc(Cc3ccccc3)n2-c2ccc(F)cc2)n1 | inconclusive: 29.1 µM [cytotoxic, single point] | – |
| Cc1nn(Cc2c(F)c(F)c(F)c(F)c2F)c(C)c1NC(=O)c1cccc(COc2ccccc2Cl)c1 | active: 2.59 µM | – |
| COc1ccc(NS(=O)(=O)c2ccc(OC)c(NC(=O)CCC3CCCCC3)c2)cc1 | active: 11.6 µM | – |
| O=C(CN1CCC(O)(c2cccc(C(F)(F)F)c2)CC1)NCCc1ccccc1 | inconclusive: 29.1 µM [cytotoxic, single point] | – |
| Cc1ccc(C(=O)NC(C)c2ccccc2)cc1Br (stereo unspecified) | inconclusive: 25.9 µM [cytotoxic, single point] | – |
| O=C(c1cccc(C(F)(F)F)c1)N1CCC(O)(CS(=O)(=O)Cc2ccc(Cl)cc2)CC1 | active: 11.6 µM | – |
| Cn1cc(CCC(=O)N2CCCC(C(=O)c3ccc(C(C)(C)C)cc3)C2)cn1 (stereo unspecified) | inconclusive: 14.6 µM [cytotoxic, partial curve] | – |
| Cc1nc2c(C#N)c(-c3ccc(Cl)cc3)ccn2n1 | inconclusive: 16.4 µM [cytotoxic, single point] | – |
| Cc1ccc(CNC(=O)c2c(-c3ccccc3F)noc2C)o1 | inactive | – |
